The results in this text go back to publication doi:10.1101/419721 (bioRxiv, 2018).

The chains behind the UniProt entries cited, without tags or fusion partners. Where a name states a change or a piece, a line headed by the entry shows the natural chain unless it says otherwise. Residues count along the entry.
UniProt Q15418: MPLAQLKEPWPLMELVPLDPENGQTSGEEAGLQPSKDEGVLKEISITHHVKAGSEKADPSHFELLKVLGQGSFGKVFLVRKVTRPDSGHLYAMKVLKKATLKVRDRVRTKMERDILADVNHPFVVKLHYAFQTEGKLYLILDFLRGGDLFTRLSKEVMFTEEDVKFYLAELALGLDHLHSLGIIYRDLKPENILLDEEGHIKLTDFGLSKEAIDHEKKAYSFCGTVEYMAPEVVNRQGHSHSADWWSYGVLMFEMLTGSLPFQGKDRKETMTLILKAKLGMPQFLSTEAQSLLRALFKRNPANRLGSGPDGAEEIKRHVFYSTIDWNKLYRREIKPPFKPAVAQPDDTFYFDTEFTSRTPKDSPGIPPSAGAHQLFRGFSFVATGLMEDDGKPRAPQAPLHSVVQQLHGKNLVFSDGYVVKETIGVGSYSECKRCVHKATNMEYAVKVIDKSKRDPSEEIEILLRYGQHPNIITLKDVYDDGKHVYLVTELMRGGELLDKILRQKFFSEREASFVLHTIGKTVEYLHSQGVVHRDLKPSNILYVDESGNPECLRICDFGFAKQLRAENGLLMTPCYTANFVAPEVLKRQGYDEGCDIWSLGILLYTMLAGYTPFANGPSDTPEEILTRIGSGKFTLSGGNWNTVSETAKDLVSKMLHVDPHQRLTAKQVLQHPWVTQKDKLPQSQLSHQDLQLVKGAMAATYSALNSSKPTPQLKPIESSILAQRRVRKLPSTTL
UniProt Q96QZ7: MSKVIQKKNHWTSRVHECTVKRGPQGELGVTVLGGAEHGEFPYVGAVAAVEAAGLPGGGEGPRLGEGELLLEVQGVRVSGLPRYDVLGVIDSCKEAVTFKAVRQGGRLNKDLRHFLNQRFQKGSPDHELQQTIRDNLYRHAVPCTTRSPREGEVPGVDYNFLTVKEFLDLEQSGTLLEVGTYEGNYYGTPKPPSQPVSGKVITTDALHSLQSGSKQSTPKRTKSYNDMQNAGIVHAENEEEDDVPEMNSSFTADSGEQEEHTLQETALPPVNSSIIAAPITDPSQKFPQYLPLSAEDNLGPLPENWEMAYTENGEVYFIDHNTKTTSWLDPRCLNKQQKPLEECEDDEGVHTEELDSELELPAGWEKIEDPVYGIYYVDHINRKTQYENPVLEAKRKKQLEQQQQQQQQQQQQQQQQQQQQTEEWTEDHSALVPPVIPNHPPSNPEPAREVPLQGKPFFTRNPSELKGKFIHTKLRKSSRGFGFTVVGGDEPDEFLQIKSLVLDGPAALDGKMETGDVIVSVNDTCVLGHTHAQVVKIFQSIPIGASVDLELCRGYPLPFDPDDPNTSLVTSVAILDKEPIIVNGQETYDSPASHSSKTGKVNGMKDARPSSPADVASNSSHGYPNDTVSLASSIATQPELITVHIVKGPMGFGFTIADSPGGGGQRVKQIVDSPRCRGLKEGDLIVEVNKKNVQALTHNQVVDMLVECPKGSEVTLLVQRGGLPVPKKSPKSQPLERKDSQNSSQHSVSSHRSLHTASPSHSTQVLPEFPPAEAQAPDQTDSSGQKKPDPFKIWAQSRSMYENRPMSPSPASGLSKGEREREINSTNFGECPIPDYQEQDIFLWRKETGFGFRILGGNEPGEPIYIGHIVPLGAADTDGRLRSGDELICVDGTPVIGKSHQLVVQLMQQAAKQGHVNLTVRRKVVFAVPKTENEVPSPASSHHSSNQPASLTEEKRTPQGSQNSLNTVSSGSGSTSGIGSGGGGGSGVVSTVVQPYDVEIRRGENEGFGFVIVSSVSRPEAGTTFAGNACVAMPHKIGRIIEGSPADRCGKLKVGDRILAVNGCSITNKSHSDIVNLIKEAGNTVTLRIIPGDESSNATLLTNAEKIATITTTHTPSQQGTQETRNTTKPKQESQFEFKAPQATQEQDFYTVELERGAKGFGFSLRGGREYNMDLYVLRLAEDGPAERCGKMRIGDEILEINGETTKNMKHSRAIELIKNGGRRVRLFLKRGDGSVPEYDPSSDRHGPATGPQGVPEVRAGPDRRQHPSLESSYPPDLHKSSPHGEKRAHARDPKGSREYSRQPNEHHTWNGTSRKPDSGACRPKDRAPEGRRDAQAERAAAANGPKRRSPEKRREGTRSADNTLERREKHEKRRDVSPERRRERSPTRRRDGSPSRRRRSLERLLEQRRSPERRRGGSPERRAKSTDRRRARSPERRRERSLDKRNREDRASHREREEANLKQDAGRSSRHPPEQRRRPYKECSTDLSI
UniProt Q6P0Q8, residues 1104-1192: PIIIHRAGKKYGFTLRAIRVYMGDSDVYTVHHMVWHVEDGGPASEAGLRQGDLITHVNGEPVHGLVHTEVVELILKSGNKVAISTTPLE

Results are given in words; binding and its absence hold for the method and conditions named. For part of these data: Binding seen in cells or lysates may run through a third protein. Some results given as binding are weak or reduced against the parent protein; the word gives no strength. Sequences can lack the tags named with a protein.

Assay [1] addresses full-length RSK1, wild type, SmBiT tagged (human (cDNA from HEK293T or HeLa)) (UniProt Q15418). The assay can be described thus: split reporter.
Assay [2] concerns the target T1, biotinylated unphosphorylated RSK1 PBM peptide (RSK1 725-735) (UniProt Q15418).
T1 sequence (peptide, biotin attached to the N-terminal via a TTDS linker): RRVRKLPSTTL
The assay can be described thus: holdup assay.

The target of assay [3] is full-length RSK1 L714E, SmBiT tagged (human (cDNA from HEK293T or HeLa)) (UniProt Q15418). The assay can be described thus: split reporter.

Take “full-length MAGI1, LgBiT tagged (from UniProt Q96QZ7 1-1491)”: the binding entry in assay [1] is given as “binds”.

For “PDZ domain of MAST2 (from UniProt Q6P0Q8 1104-1192) (domain or fragment)”, the binding entry in assay [2] is reported as “binds”.

B1: PARD3B (1-913), LgBiT tagged (protein, UniProt Q8TEW8 1-913)
chain: MKVTVCFGRTGIVVPCKEGQLRVGELTQQALQRYLKTREKGPGYWVKIHHLEYTDGGILDPDDVLADVVEDKDKLIAVFEEQEPLHKIESPSGNPADRQSPDAFETEVAAQLAAFKPIGGEIEVTPSALKLGTPLLVRRSSDPVPGPPADTQPSASHPGGQSLKLVVPDSTQNLEDREVLNGVQTELLTSPRTKDTLSDMTRTVEISGEGGPLGIHVVPFFSSLSGRILGLFIRGIEDNSRSKREGLFHENECIVKINNVDLVDKTFAQAQDVFRQAMKSPSVLLHVLPPQNREQYEKSVIGSLNIFGNNDGVLKTKVPPPVHGKSGLKTANLTGTDSPETDASASLQQNKSPRVPRLGGKPSSPSLSPLMGFGSNKNAKKIKIDLKKGPEGLGFTVVTRDSSIHGPGPIFVKNILPKGAAIKDGRLQSGDRILEVNGRDVTGRTQEELVAMLRSTKQGETASLVIARQEGHFLPRELKGEPDCCALSLETSEQLTFEIPLNDSGSAGLGVSLKGNKSRETGTDLGIFIKSIIHGGAAFKDGRLRMNDQLIAVNGESLLGKSNHEAMETLRRSMSMEGNIRGMIQLVILRRPERPMEDPAECGAFSKPCFENCQNAVTTSRRNDNSILHPLGTCSPQDKQKGLLLPNDGWAESEVPPSPTPHSALGLGLEDYSHSSGVDSAVYFPDQHINFRSVTPARQPESINLKASKSMDLVPDESKVHSLAGQKSESPSKDFGPTLGLKKSSSLESLQTAVAEVRKNDLPFHRPRPHMVRGRGCNESFRAAIDKSYDGPEEIEADGLSDKSSHSGQGALNCESAPQGNSELEDMENKARKVKKTKEKEKKKEKGKLKVKEKKRKEENEDPERKIKKKGFGAMLRFGKKKEDKGGKAEQKGTLKHGGLREEELEKMKEERE
In the case of B1, the binding result in assay [3] and in assay [1] was “binds” in each case.

B2: full-length SYNJ2BP, LgBiT tagged (protein, UniProt P57105 1-145)
chain: MNGRVDYLVTEEEINLTRGPSGLGFNIVGGTDQQYVSNDSGIYVSRIKENGAAALDGRLQEGDKILSVNGQDLKNLLHQDAVDLFRNAGYAVSLRVQHRLQVQNGPIGHRGEGDPSGIPIFMVLVPVFALTMVAAWAFMRYRQQL
For B2, the binding result in assay [3] and in assay [1] was “binds” throughout.

B3: PDZ domain of SYNJ2BP (MBP-PDZ) (domain or fragment, UniProt P57105 13-100)
chain: EINLTRGPSGLGFNIVGGTDQQYVSNDSGIYVSRIKENGAAALDGRLQEGDKILSVNGQDLKNLLHQDAVDLFRNAGYAVSLRVQHRL
Take B3: the binding entry in assay [2] was “binds”.

B4: PDZ domain of ARHGEF11 (domain or fragment, UniProt O15085 47-126)
chain: CVIIQKDQHGFGFTVSGDRIVLVQSVRPGGAAMKAGVKEGDRIIKVNGTMVTNSSHLEVVKLIKSGAYVALTLLGSSPSS
B4: the binding result in assay [2] is “binds”.

B5: PDZ domain of ARHGEF12 (MBP-PDZ) (domain or fragment, UniProt Q9NZN5 72-151)
chain: CVIIQKDDNGFGLTVSGDNPVFVQSVKEDGAAMRAGVQTGDRIIKVNGTLVTHSNHLEVVKLIKSGSYVALTVQGRPPGS
In the case of B5, the binding entry in assay [2] was “binds”.
